From patent publication US20180360767A1, “BIOCOMPATIBLE PARTICLES AND METHODS OF MAKING AND USE THEREOF” (priority 2015, published 2018)
Values after ≈ are worked out from the molar mass of the structure shown.

Assays:
HeLa cells = assay: In vitro cytotoxicity, MTT assay; format: cell-based; conditions: Homo sapiens, 24 h treatment, doxorubicin concentration, read-out: half-maximal inhibitory concentration (IC50)
Description: HeLa cells (1×10^4 cells per well) were seeded in the 96-well plates. […] After 4 h of incubation, the medium was removed, and the cells were mixed with 150 μl of dimethyl sulfoxide. The absorbance was measured at a test wavelength of 570 nm and a reference wavelength of 630 nm by a microplate reader (Infinite […], Tecan).

[1] = pH range of 2.5 to 8; cited from earlier work

Row | Structure (SMILES) | IC50 (HeLa cells) [µg/mL] | solubility change with pH [1]
1 | COc1cccc2c1C(=O)c1c(O)c3c(c(O)c1C2=O)C[C@@](O)(C(=O)CO)C[C@@H]3O[C@H]1C[C@H](N)[C@H](O)[C@H](C)O1 [Doxorubicin] | 1.33 (≈ 2.45 µM) | –
2 | CC(=O)O[C@H]1C(=O)[C@@]2(C)[C@H]([C@H](OC(=O)c3ccccc3)[C@]3(O)C[C@H](OC(=O)[C@H](O)[C@@H](NC(=O)c4ccccc4)c4ccccc4)C(C)=C1C3(C)C)[C@]1(OC(C)=O)CO[C@@H]1C[C@@H]2O [Paclitaxel] | – | insignificant solubility change
